Laboratory results reported in PMC12255758.
No constants are given. Whether binding was seen depends on the method and setting. In cells and extracts the contact can be indirect. These calls come from enrichment with a bait or labelling near it, and not all partners need be listed.

Sequences of proteins named here, by UniProt entry; tags and fusion partners are left off.
UniProt Q9UNE7: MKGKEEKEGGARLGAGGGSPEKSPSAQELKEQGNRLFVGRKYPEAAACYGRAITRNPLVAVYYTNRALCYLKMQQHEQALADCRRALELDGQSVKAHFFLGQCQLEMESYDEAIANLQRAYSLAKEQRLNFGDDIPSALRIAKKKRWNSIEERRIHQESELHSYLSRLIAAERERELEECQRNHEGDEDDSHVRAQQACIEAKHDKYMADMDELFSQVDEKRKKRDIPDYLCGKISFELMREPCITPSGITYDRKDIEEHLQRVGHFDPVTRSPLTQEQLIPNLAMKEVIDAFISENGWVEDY

Molecular target: Flag-tagged full-length STUB1 (UniProt Q9UNE7)
Assay: affinity purification with mass spectrometry; Flag-STUB1 and associated proteins captured from cell lysates with anti-Flag magnetic beads; complexes separated on a gel, silver stained, mass spectrometry

B1: endogenous GOT2 (enzyme, UniProt P00505 30-430)
chain: SSWWTHVEMGPPDPILGVTEAFKRDTNSKKMNLGVGAYRDDNGKPYVLPSVRKAEAQIAAKNLDKEYLPIGGLAEFCKASAELALGENSEVLKSGRFVTVQTISGTGALRIGASFLQRFFKFSRDVFLPKPTWGNHTPIFRDAGMQLQGYRYYDPKTCGFDFTGAVEDISKIPEQSVLLLHACAHNPTGVDPRPEQWKEIATVVKKRNLFAFFDMAYQGFASGDGDKDAWAVRHFIEQGINVCLCQSYAKNMGLYGERVGAFTMVCKDADEAKRVESQLKILIRPMYSNPPLNGARIAAAILNTPDLRKQWLQEVKVMADRIIGMRTQLVSNLKKEGSTHNWQHITDQIGMFCFTGLKPEQVERLIKEFSIYMTKDGRISVAGVTSSNVGYLAHAIHQVTK
- binding: binds
